Source: PubChem BioAssay AID504784 (Drosophila RNAi Screening Center, 2011)
Assay: 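Genome-wide knock-down for genes giving too much or too little stored lipid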 (primary screen). Cells: Drosophila Kc167 embryonic cells. Reagents: long dsRNA against Drosophila genes, about 250 ng dsRNA per well. Timing: 4 days. Challenge: cells fed 400 µM oleic acid bound to BSA. Detection: 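Cells imaged and segmented; ratio of lipid droplet area to nuclear area, log-transformed, then normalised as a B-score over the screen; higher means more stored lipid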. Direction: droplet/nuclear area B-score: higher = more stored lipid (overstorage).
In all, the deposit lists about 17,000 reagents; shown is an unselected part of those with a known target gene and a result. 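Each column is one replicate's B-score; the combined score over replicates was not deposited, so single values may mislead.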 Names joined by + are all predicted targets of the reagent. Further read-outs or replicates are left out here.

{"gene": "CG6962", "DRSC id": "DRSC16153", "droplet/nuclear area B-score, replicate 1": -0.0699}
{"gene": "CG9380", "DRSC id": "DRSC04549", "droplet/nuclear area B-score, replicate 1": -0.365}
{"gene": "CG14079", "DRSC id": "DRSC10083", "droplet/nuclear area B-score, replicate 1": 0.162}
{"gene": "ftz", "DRSC id": "DRSC12626", "droplet/nuclear area B-score, replicate 1": 0.319}
{"gene": "CG34195", "DRSC id": "DRSC06909", "droplet/nuclear area B-score, replicate 1": 0.0052}
{"gene": "CG6435", "DRSC id": "DRSC06987", "droplet/nuclear area B-score, replicate 1": -0.141}
{"gene": "CG32379", "DRSC id": "DRSC10318", "droplet/nuclear area B-score, replicate 1": -0.248}
{"gene": "CG15747", "DRSC id": "DRSC19713", "droplet/nuclear area B-score, replicate 1": 0.0254}
{"gene": "Map205", "DRSC id": "DRSC16732", "droplet/nuclear area B-score, replicate 1": -3.88}
{"gene": "parvin", "DRSC id": "DRSC19468", "droplet/nuclear area B-score, replicate 1": -0.81}
{"gene": "CG32821 (retired record)", "DRSC id": "DRSC22544", "droplet/nuclear area B-score, replicate 1": -0.658}
{"gene": "Rpp25", "DRSC id": "DRSC05002", "droplet/nuclear area B-score, replicate 1": 1.02}
{"gene": "CG1648", "DRSC id": "DRSC06610", "droplet/nuclear area B-score, replicate 1": 0.524}
{"gene": "MtnB", "DRSC id": "DRSC22744", "droplet/nuclear area B-score, replicate 1": 0.985}
{"gene": "RpS15Ab + RpS15Aa", "DRSC id": "DRSC06129", "droplet/nuclear area B-score, replicate 1": -0.711}
{"gene": "RpS15Ab + RpS15Aa", "DRSC id": "DRSC19831", "droplet/nuclear area B-score, replicate 1": -1.4}
{"gene": "Hdc", "DRSC id": "DRSC07439", "droplet/nuclear area B-score, replicate 1": 1.35}
{"gene": "mRpL39", "DRSC id": "DRSC10255", "droplet/nuclear area B-score, replicate 1": 4.28}
{"gene": "CG4213", "DRSC id": "DRSC00641", "droplet/nuclear area B-score, replicate 1": -0.148}
{"gene": "CG13510", "DRSC id": "DRSC04152", "droplet/nuclear area B-score, replicate 1": 1.91}
{"gene": "St2", "DRSC id": "DRSC15142", "droplet/nuclear area B-score, replicate 1": 1.26}
{"gene": "St2", "DRSC id": "DRSC22624", "droplet/nuclear area B-score, replicate 1": -0.149}
{"gene": "Rtc1", "DRSC id": "DRSC20285", "droplet/nuclear area B-score, replicate 1": -0.0377}
{"gene": "ninaC", "DRSC id": "DRSC03579", "droplet/nuclear area B-score, replicate 1": -1.73}
{"gene": "CG3829", "DRSC id": "DRSC04423", "droplet/nuclear area B-score, replicate 1": 0.0293}
{"gene": "CG12783", "DRSC id": "DRSC14538", "droplet/nuclear area B-score, replicate 1": -0.467}
{"gene": "Prosbeta2R1", "DRSC id": "DRSC18154", "droplet/nuclear area B-score, replicate 1": 0.88}
{"gene": "Krn", "DRSC id": "DRSC11202", "droplet/nuclear area B-score, replicate 1": 3.71}
{"gene": "CG7544", "DRSC id": "DRSC07023", "droplet/nuclear area B-score, replicate 1": -0.0172}
{"gene": "BG642163", "DRSC id": "DRSC00342", "droplet/nuclear area B-score, replicate 1": 1.07}
{"gene": "BG642163", "DRSC id": "DRSC00343", "droplet/nuclear area B-score, replicate 1": 0.14}
{"gene": "CG32448", "DRSC id": "DRSC22657", "droplet/nuclear area B-score, replicate 1": 0.183}
{"gene": "CG34409", "DRSC id": "DRSC14577", "droplet/nuclear area B-score, replicate 1": 0.793}
{"gene": "CG34409", "DRSC id": "DRSC21667", "droplet/nuclear area B-score, replicate 1": -0.966}
{"gene": "BHD", "DRSC id": "DRSC11017", "droplet/nuclear area B-score, replicate 1": -0.00326}
{"gene": "BHD", "DRSC id": "DRSC22833", "droplet/nuclear area B-score, replicate 1": 1.41}
{"gene": "MED20", "DRSC id": "DRSC03463", "droplet/nuclear area B-score, replicate 1": -0.481}
{"gene": "CG17167", "DRSC id": "DRSC20902", "droplet/nuclear area B-score, replicate 1": -0.119}
{"gene": "CG17167", "DRSC id": "DRSC20903", "droplet/nuclear area B-score, replicate 1": -3.64}
{"gene": "NO66", "DRSC id": "DRSC18252", "droplet/nuclear area B-score, replicate 1": -0.943}

6 of these entries in another layout:
gene	DRSC id	droplet/nuclear area B-score, replicate 1
Hdc	DRSC07439	1.35
mRpL39	DRSC10255	4.28
CG4213	DRSC00641	-0.148
CG13510	DRSC04152	1.91
St2	DRSC15142	1.26
St2	DRSC22624	-0.149
